Literature values as cited in US20190105332A1, “METHODS OF TREATING PROSTATE CANCER” (Janssen Oncology, Inc., priority 2017, published 2019).
The name of at least one read-out is uncertain.

Settings: monkey, in vivo

Compound: CC(=O)O[C@H]1CC[C@@]2(C)C(=CC[C@@H]3[C@@H]2CC[C@]2(C)C(c4cccnc4)=CC[C@@H]32)C1 [abiraterone acetate, (3β)-17-(3-pyridinyl) androsta-5,16-dien-3-yl acetate]
- exposure at which these effects were observed, relative to the AUC in humans: approximately 0.6 times
